Measured values: PubChem BioAssay AID493014 (National Center for Advancing Translational Sciences (NCATS), 2011)
Screen size: about 340,000 compounds; about 170 (0.05%) were called active. Inconclusive means that the source gave no clear call. Such entries were picked first, then a sample of the others. Calls follow the shape of the dose curve; as a rule, active = well fitted inhibition curve with a large enough effect in the signal ratio, with a control signal flat (not every such curve was filed as active); inconclusive = small, poorly fitted or top-dose-only effect, or effect the other way, or a change in a side signal; inactive = flat fitted curve, though single readings scatter; the % refers to the signal ratio. Where the call is inconclusive, the potency comes from a doubtful curve fit.
Potency is read from the fitted curve at half-maximal effect.

Assay: qHTS Assay to Find Inhibitors of Chronic Active B-Cell Receptor Signaling;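 as to activity change, negative = inhibition: plate controls were basal doxycycline-induced cells for no effect and cells given 10 µM MG132 for full effect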
Conditions: ABC-DLBCL IkBa-CBG/CBR reporter, luminescence ratio (green luciferase fused to IkBa over red control in TMD8 lymphoma cells), 4 h; activity change, negative = inhibition: at 46.1 µM (top of the series) unless noted
Outline: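 Compounds up to 46 uM were incubated four hours with TMD8 cells whose green CBG68 luciferase is fused to IkappaBalpha; red CBR luminescence normalised the signal, and concentration-effect curves were fitted to fusion, red and ratio data.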
In the case of `COC(=O)N/N=C/c1cn(Cc2ccccc2F)c2ccccc12`, the Potency is reported as inconclusive: 7.94 µM [falling, full curve, poor fit]. With `COc1ccc(N=Nc2c(C)n[nH]c2C)cc1` the Potency was inconclusive: 11.2 µM [falling, partial curve, poor fit]. With `Cc1ccc(NC(=O)CN2C(=O)N/C(=C/c3cc(C)n(-c4ccc(C(=O)O)cc4)c3C)C2=O)cc1` the “activity change, negative = inhibition” value was inactive: 0.892%. In the case of `Cc1ccc(CS(=O)(=O)c2ncc(Cl)c(C(=O)Nc3ccc(OC(F)F)cc3)n2)cc1`, the activity change, negative = inhibition is reported as inconclusive: 21%. In the case of `CC(C)C(NC(=O)c1ccccc1F)C(=O)OCC(=O)c1ccc(F)cc1` (stereo not given), the activity change, negative = inhibition is reported as inconclusive: 0.0398%. With `CC1CCCN(C2(O)C(=O)Nc3ccc(Cl)cc32)C1` (stereo not given) the activity change, negative = inhibition was inconclusive: -0.609%. With `COc1cc(NC(=O)CSc2nc(=O)n(CCCN3CCOCC3)c3c2CCC3)cc(OC)c1` the activity change, negative = inhibition was inconclusive: 3.44%. In the case of `CN(C)CCOCCOc1ccc(Cl)c2ccccc12`, the activity change, negative = inhibition is reported as inconclusive: -20.9%. With `CCCCCCn1c(=O)c(C(=O)N/N=C/c2cccc(F)c2)c(O)c2ccccc21` the “activity change, negative = inhibition” value was inactive: -4.01%. For `c1csc(C2C3=C(Nc4ncnn42)c2ccccc2OC3)c1` (stereo not given), the activity change, negative = inhibition was inconclusive: -0.919%. For `COc1ccc(C(C)=O)cc1CSc1nnc(Nc2c(C)cccc2C)s1`, the Potency was inconclusive: 18.4 µM [falling, partial curve, poor fit]. With `COc1ccc([N+](=O)[O-])cc1NC(=O)c1csc(C)c1` the Potency was inconclusive: 1.26 µM [activator, full curve]. For `CC(C)OC(=O)c1c(NC(=O)CCn2nnc3ccccc32)sc2c1CCCC2`, the activity change, negative = inhibition was inconclusive: 16.7%. With `CC1=NN(C(=O)c2nn(C)cc2Br)C(O)(C(F)(F)F)C1` (stereo not given) the Potency was inconclusive: 18.4 µM [falling, partial curve]. With `N=C1CCC(=N)c2c1c(O)c1ccccc1c2O` the activity change, negative = inhibition was inconclusive: 26.4%. In the case of `O=C(/C(=C/c1cccc(Cl)c1)c1nc2ccccc2[nH]1)c1ccccc1`, the Potency is reported as inconclusive: 6.51 µM [falling, full curve]. For `Cn1c(=NC(=O)CS(=O)(=O)c2ccccc2)sc2ccccc21`, the Potency was inconclusive: 23.1 µM [falling, single point]. With `CCc1ccc(-c2nc(SCC(=O)N(CC)C3CCS(=O)(=O)C3)n[nH]2)cc1` (stereo not given) the activity change, negative = inhibition was inconclusive: 2.29%. With `N#CCCn1cc(/C=N/NC(N)=S)c(-c2ccc(Br)cc2)n1` the Potency was inconclusive: 35.5 µM [cytotoxic, single point]. For `CC(Sc1cccc[n+]1[O-])C(=O)Nc1cccc(S(=O)(=O)N2CCOCC2)c1` (stereo not given), the Potency was inconclusive: 23.1 µM [cytotoxic, single point].
